Each structure is given as a SMILES string. The list shows a part of the results. Further columns of the screen follow, without active or inactive calls. Compounds called inactive in the main read-out are mostly missing here. Potencies come from curve fits of mixed quality, noted in brackets.

A short description of the assay: qHTS Assay for Lipid Storage Modulators in Drosophila S3 Cells.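 On cell number change: cells counted by Cell Tracker Red CMTPX staining in the red channel.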 To be noted: BODIPY lipid droplet fluorescence, 18-24 h; for cell number change: measured here: cell count max response, cells fed with added oleic acid. Put shortly:
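Drosophila S3 cells got compounds at several concentrations plus oleic acid (400 uM solution). Laser-scanning cytometry with 488 nm excitation read lipid droplets at 500-530 nm and cells at 575-640 nm. Percent activity was relative to 20 uM Triacsin C.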

The mark [1] stands for this setting: measured here: lipid fluorescence (Fed channel) AC50, cells fed with added oleic acid.
Setting [2] is: measured here: cell number channel AC50, cells fed with added oleic acid.

Turning to `Cc1ccc(C(=O)Nc2ccc(C(=O)N/N=C/c3c[nH]c4ccccc34)cc2)cc1`, the cell number change was -22.5%. For the same compound, the AC50 under setting [1] is 18.4 µM [falling, single point].

As for `CCOc1cc(CNc2ccc(N3CCN(C(C)=O)CC3)cc2)cc(Br)c1OC`, the cell number change came out at 14.5%. The AC50 under setting [1] is 14.6 µM [rising, partial curve].

Take `CC(C)c1ccc(N(C(=O)c2snc(C(N)=O)c2N)C(C(=O)NC2CCCC2)c2ccncc2)cc1` (stereo unspecified): the cell number change was -1.28%.

Regarding `Cc1ccccc1Cn1nc(C)c(NC(=O)c2nc3n(n2)C(C(F)F)CC(C)N3)c1C` (stereo unspecified), the cell number change stood at 0.291%. Also, the AC50 under setting [1] was 1.46 µM [rising, partial curve].

On to `CCC(C)[C@H](NC(=O)c1cn(CC)c2cc3c(cc2c1=O)OCO3)C(=O)NCCCn1ccnc1` (stereo partly specified), for which the cell number change is 15.3%.

Turning to `Cc1onc(-c2c(Cl)cccc2Cl)c1C(=O)NCc1ccco1`, the cell number change came out at 2.51%. Moreover, the AC50 under setting [1] was 32.6 µM [falling, single point].

Turning to `CC(O)CNCc1ccc(-c2ccccc2)cc1` (stereo unspecified), the cell number change is -5.79%.

On to `O=C1c2ccccc2C(=O)N1n1c(=O)[nH]c2ccccc2c1=O`, for which the AC50 is 6.51 µM [rising, partial curve] under setting [2] and 1.3 µM [falling, full curve] under setting [1].

As for `COc1cccc(CNC(=O)CCC2CCCN(C(=O)Cc3ccccc3F)C2)c1` (stereo unspecified), the cell number change turned out to be 1.09%. Moreover, under setting [1], the AC50 was 23.1 µM [falling, single point].

Take `O=C(O)c1ccccc1-c1nc(-c2ccccc2)c(-c2ccccc2)[nH]1`: the cell number change is 8.82%.

Turning to `O=C(CN1C(=O)CSC1=O)Nc1ccc(N2CCOCC2)cc1`, the AC50 under setting [1] is 0.058 µM [falling, full curve, poor fit].

In the case of `Cc1ccc(N2CCN(S(=O)(=O)c3ccc(Cl)s3)CC2C)cc1` (stereo unspecified), the cell number change was determined as 50.8%. Moreover, the AC50 under setting [2] is 29.1 µM [rising, partial curve]. The AC50 under setting [1] is 0.146 µM [rising, full curve, poor fit].

With `CC1CCN(CCCCOc2ccc(C(C)(C)C)cc2)CC1`, the cell number change was -9.15%. For the same compound, under setting [1], the AC50 is 6.51 µM [rising, single point].

Take `CC(C)c1ccc(NC2=NCC(=O)N2Cc2cccs2)cc1`: the cell number change was -11%. In addition, the AC50 under setting [1] was 14.6 µM [falling, single point].

Turning to `Cc1[nH]c2ccc(-c3n[nH]c(=S)n3-c3ccccc3)cc2c1C`, the cell number change was 8.56%. In addition, the AC50 under setting [1] is 0.082 µM [rising, full curve].

As to `O=C(COC(=O)c1ccccc1)NC(=O)NC1CCCC1`, the cell number change was -5.62%.

With `COc1ccc(/C=C(/CC(=O)Nc2ccc(C)cc2)c2nc3ccccc3s2)cc1`, the cell number change is -17.9%.

As for `CCOC(=O)c1cc(C#N)c(N2CCN(c3ccc(OC)cc3)CC2)[nH]c1=O`, the cell number change worked out at 6.49%. Moreover, the AC50 under setting [2] is 0.366 µM [falling, single point].

For the compound `Cn1cc(CNC(=O)c2cc(-c3ccc(Br)cc3)nc3ccccc23)cn1`, the cell number change was -28.9%. Moreover, under setting [2], the AC50 was 0.00731 µM [falling, full curve, poor fit].

For the compound `C/C(=N\O)c1ccc(Cl)c(Cl)c1`, the cell number change amounted to 11.9%. The AC50 under setting [1] is 6.51 µM [falling, single point].

As for `O=C(Cn1nc(Cc2ccncc2)c2ccccc2c1=O)Nc1cccnc1Cl`, the cell number change worked out at 9.42%. The AC50 under setting [1] was 0.116 µM [rising, full curve, poor fit].

On to `COC(=O)c1ccccc1CC1SC(N)=NC1=O` (stereo unspecified), for which the cell number change amounted to 23.9%.

On to `Cn1cc(Br)c(-c2cccc(N3C(=O)CCCC3=O)c2)n1`, for which the cell number change was -6.14%. Also, the AC50 under setting [1] was 0.103 µM [falling, full curve, poor fit].

Turning to `COc1ccc(S(=O)(=O)N2CCN(c3ccccc3OC)CC2)cc1OC`, the cell number change was determined as 2.73%. Further, the AC50 under setting [2] is 0.291 µM [falling, partial curve]. Besides, the AC50 under setting [1] was 1.16 µM [falling, full curve, poor fit].

In the case of `CCOC(=O)/C(=C\C=C1/Sc2cc(OCC)c(OCC)cc2N1CC)C(C)=O`, the cell number change is -98.9%. Besides, under setting [2], the AC50 was 5.8 µM [falling, full curve]. The AC50 under setting [1] is 8.2 µM [falling, partial curve].

`Clc1ccc(Cl)c(Oc2ccc(Oc3nc(Cl)ccc3Cl)cc2)n1`: the cell number change was 2.63%.

As for `O=C(Nc1cccc(O)c1)C1CC(c2ccc(Cl)cc2)=NO1` (stereo unspecified), the cell number change was 14.4%.

`O=S(=O)(c1ccc(Cl)cc1)N1CCC(N2CCCCCC2)CC1`: the cell number change is 20.1%. Also, under setting [1], the AC50 is 29.1 µM [falling, single point].

Take `Cc1ccccc1NC(=O)Cn1c(=O)oc2ccccc21`: the cell number change was -5.49%. The AC50 under setting [1] is 23.1 µM [rising, single point].

Regarding `CC1CCCCC1NC(=O)COC(=O)c1ccc([N+](=O)[O-])o1` (stereo unspecified), under setting [1], the AC50 was 1.84 µM [falling, partial curve].

As for `CC(C)C1C(=O)CC(c2ccccc2)NC1c1ccccc1` (stereo unspecified), the cell number change was 15%. Besides, the AC50 under setting [1] was 23.1 µM [rising, partial curve].

As to `COc1ccc(OC)c(N(CC(=O)NCCSC2CCCCC2)S(=O)(=O)c2ccccc2)c1`, the AC50 under setting [1] is 13 µM [falling, partial curve].

As for `Cc1cc(C(F)(F)F)nc(SCC(=O)NC2CCCCC2)n1`, the cell number change was -2.63%.

On to `O=C(O)C1C2C=CC(C2)C1C(=O)NCc1ccccn1` (stereo unspecified), for which the cell number change was found to be 6.62%. In addition, the AC50 under setting [1] is 0.092 µM [falling, full curve, poor fit].

With `COc1ccc2nc(Nc3nc(C)c(CCC(C)C)c(=O)[nH]3)nc(C)c2c1`, the cell number change is -3.5%. Further, the AC50 under setting [1] was 0.206 µM [rising, full curve].

Regarding `Cc1cc(-c2ccccc2)nc(SCc2ccc(C(=O)O)o2)n1`, the cell number change was -54.6%. The AC50 under setting [2] was 13 µM [falling, partial curve]. The AC50 under setting [1] was 18.4 µM [falling, partial curve].

For `COC(=O)c1ccccc1NC(=O)CN(C)Cc1ccccc1`, the cell number change came out at 47.9%. Further, the AC50 under setting [2] was 2.91 µM [rising, partial curve]. For the same compound, the AC50 under setting [1] is 23.1 µM [rising, partial curve].

With `COc1ccc(OC)c(N2CC(O)(c3cccs3)[N+]3=C2SCCC3)c1` (stereo unspecified), the cell number change worked out at 5.65%.

In the case of `COc1ccc(C(=O)NC2CCCc3c2cnn3-c2cccc(C)c2C)c(OC)n1` (stereo unspecified), the cell number change was -55.9%. Further, the AC50 under setting [2] was 1.84 µM [falling, full curve]. In addition, the AC50 under setting [1] was 29.1 µM [falling, single point].

Turning to `O=C(NC(Cc1c[nH]c2ccccc12)C(=O)N/N=C/c1ccc(Cl)cc1)c1cccs1` (stereo unspecified), the cell number change was found to be 64%. Under setting [1], the AC50 was 23.1 µM [rising, partial curve].

Consider `Cc1cccc(N(CC(O)CN2CCCC2)S(=O)(=O)c2ccccc2)c1` (stereo unspecified), for which the cell number change was determined as 7.14%.

Take `O=C(O)c1ccc(NC(=S)N2CCCCC2)cc1`: the cell number change was -15.5%. Also, under setting [1], the AC50 is 2.59 µM [falling, single point].

Regarding `Cc1nn(-c2ccccc2)c2sc(-c3n[nH]c(=S)o3)cc12`, the AC50 under setting [1] was 6.51 µM [rising, single point].

For `O=C(NCCC1CCCCN1S(=O)(=O)c1ccc(Cl)cc1)C(=O)NCCN1CCOCC1` (stereo unspecified), the AC50 reads like this: under setting [2], 3.26 µM [falling, single point]; under setting [1], 0.92 µM [falling, full curve].

As to `CCCn1nc(NS(=O)(=O)c2cccc3nonc23)c2cc3ccccc3nc21`, the cell number change was -4.28%. Moreover, the AC50 under setting [1] was 23.1 µM [falling, single point].

Regarding `Cc1ccccc1C(=O)N1CCN(c2ccc(NC(=O)c3ccc4c(c3)OCCO4)cc2)CC1`, the cell number change was -5.96%.

For the compound `COC(=O)Cn1c2ccccc2c2nc(=O)cc(C)n21`, the cell number change worked out at 6.37%. The AC50 under setting [2] was 0.103 µM [falling, partial curve, poor fit]. Besides, the AC50 under setting [1] is 0.092 µM [falling, partial curve, poor fit].

For the compound `O=C(O)CCC(=O)Nc1cccc(-c2csc(-c3ccccc3)n2)c1`, the cell number change is -13.2%. Moreover, the AC50 under setting [1] is 32.6 µM [falling, single point].

Regarding `Cc1ccc(NC(=O)c2ccccc2F)cc1S(=O)(=O)N1CCCCCC1`, the cell number change amounted to 35.5%. For the same compound, the AC50 under setting [2] is 0.082 µM [rising, full curve]. Besides, under setting [1], the AC50 is 0.651 µM [rising, partial curve].

Take `COc1ccc(C(=O)Oc2cc(C)[nH]c(=O)c2[N+](=O)[O-])c(OC)c1`: the cell number change came to 5.39%. The AC50 under setting [1] was 6.51 µM [falling, single point].

With `C=CCNC(=O)C(=O)NCCOc1ccccc1Cl`, under setting [2], the AC50 was 3.26 µM [rising, single point].

`CCOc1ccccc1NC(=O)C1C2CCC3C(CCC21)C3(Cl)Cl` (stereo unspecified): the cell number change came to 9.22%. Besides, the AC50 under setting [1] is 15.8 µM [rising, single point].

As for `COC(=O)C(Cc1ccccc1)NC(=O)CC(C)CC(=O)Nc1ccc(OC)cc1OC` (stereo unspecified), the cell number change was -29.6%. For the same compound, the AC50 under setting [1] was 10.3 µM [falling, partial curve].

On to `CCN(CC)S(=O)(=O)c1ccc(-c2ccc(S(=O)(=O)N(CC)CC)cc2)cc1`, for which the cell number change came to 8.6%. Under setting [1], the AC50 is 9.2 µM [rising, partial curve].

Consider `CCCc1ccc2oc(C(=O)NCCc3cnn(C)c3)c(C)c2c1`, for which the cell number change came to 10.2%. Further, the AC50 under setting [1] is 0.00461 µM [rising, full curve, poor fit].

As to `COc1cc(/C=N\NC(=O)c2ccc(-c3ccccc3)cc2)cc(Br)c1O`, the cell number change was -47.8%. Further, the AC50 under setting [2] is 14.6 µM [falling, partial curve]. Also, the AC50 under setting [1] was 9.2 µM [falling, partial curve].

As for `COC(=O)c1cc2nc(-c3ccccc3)cc(C)n2n1`, the cell number change was determined as 14%. Besides, under setting [1], the half-maximal activity concentration (AC50) is 9.2 µM [rising, partial curve].

Regarding `COc1nc(Nc2cccc(C)c2)nc(N2CCCCC2)n1`, the cell number change is -39.6%. Under setting [2], the AC50 is 18.4 µM [falling, single point].

For the compound `COC(=O)CCC(C)N1CCC(Oc2ccc(C(=O)NCc3ccccn3)cc2)CC1` (stereo unspecified), the cell number change came to 15.9%.

As for `COC(=O)c1cn(C(=O)c2ccc(OC)c(OC)c2)c2ccccc12`, the cell number change was -13%.

Regarding `CCOC(=O)C1=C(CNCCOc2ccc(OC)cc2)NC(=O)NC1c1ccc2c(c1)OCO2` (stereo unspecified), the cell number change is -0.11%. Moreover, the AC50 under setting [1] was 6.51 µM [rising, single point].

Turning to `CC[n+]1ccc(/C=C/c2c[nH]c3ccccc23)cc1`, the cell number change is -5.9%. In addition, under setting [1], the AC50 was 29.1 µM [falling, single point].

Regarding `CC(C)Cc1nnc(NC(=O)CCC(=O)N2CCN(S(=O)(=O)c3ccccc3)CC2)s1`, the cell number change is 333%. For the same compound, the AC50 under setting [2] was 6.51 µM [rising, partial curve]. Besides, the AC50 under setting [1] was 23.1 µM [rising, single point].

As a reminder, the AC50 is the midpoint of the concentration-response curve, whichever way the signal moves.

These data come from PubChem BioAssay AID2685 (National Center for Advancing Translational Sciences (NCATS), 2010).
